Assay results taken from publication PMC4974783.
Results are given in words; binding and its absence hold for the method and conditions named. In cells and extracts the contact can be indirect. Some binding calls cover weakened binding; strength is not graded here.

Chains of the proteins cited; added tags and fusions are not shown. Lines headed by an entry give the natural chain unless they say otherwise; changes in a name come on top.
UniProt P28867: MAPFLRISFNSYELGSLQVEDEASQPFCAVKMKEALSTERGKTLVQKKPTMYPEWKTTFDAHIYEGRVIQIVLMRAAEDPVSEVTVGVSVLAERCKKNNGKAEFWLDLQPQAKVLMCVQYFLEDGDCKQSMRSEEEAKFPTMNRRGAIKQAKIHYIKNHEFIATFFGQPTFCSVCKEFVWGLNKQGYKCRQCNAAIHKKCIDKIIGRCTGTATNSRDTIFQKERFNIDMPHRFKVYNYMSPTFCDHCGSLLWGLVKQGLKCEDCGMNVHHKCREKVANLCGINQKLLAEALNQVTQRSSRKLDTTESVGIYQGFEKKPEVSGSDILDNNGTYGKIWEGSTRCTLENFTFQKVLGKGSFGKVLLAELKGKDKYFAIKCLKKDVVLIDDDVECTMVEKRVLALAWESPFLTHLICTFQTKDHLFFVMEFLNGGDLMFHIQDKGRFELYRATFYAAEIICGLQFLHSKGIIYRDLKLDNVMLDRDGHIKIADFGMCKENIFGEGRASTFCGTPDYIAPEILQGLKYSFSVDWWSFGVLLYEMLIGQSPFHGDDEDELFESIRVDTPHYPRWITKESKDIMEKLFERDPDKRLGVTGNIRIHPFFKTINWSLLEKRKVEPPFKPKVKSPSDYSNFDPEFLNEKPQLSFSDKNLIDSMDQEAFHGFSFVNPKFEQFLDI
UniProt Q05655: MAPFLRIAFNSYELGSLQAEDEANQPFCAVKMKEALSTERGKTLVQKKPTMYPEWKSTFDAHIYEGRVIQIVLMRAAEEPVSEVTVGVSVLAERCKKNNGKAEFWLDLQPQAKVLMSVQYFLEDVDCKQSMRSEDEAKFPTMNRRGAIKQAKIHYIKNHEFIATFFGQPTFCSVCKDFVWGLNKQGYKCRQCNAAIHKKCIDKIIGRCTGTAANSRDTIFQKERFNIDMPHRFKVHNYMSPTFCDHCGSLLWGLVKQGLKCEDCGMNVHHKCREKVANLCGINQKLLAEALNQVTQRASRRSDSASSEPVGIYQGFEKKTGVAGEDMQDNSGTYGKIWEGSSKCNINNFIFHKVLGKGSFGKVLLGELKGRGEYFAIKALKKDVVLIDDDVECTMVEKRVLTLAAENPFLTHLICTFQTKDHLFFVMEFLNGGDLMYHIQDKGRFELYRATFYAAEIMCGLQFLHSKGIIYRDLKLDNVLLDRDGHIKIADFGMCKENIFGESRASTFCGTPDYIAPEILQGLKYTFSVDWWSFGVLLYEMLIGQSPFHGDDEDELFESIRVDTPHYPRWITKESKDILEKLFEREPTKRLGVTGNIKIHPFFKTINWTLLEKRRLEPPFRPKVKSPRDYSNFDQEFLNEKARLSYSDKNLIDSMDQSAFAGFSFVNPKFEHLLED
UniProt P09382: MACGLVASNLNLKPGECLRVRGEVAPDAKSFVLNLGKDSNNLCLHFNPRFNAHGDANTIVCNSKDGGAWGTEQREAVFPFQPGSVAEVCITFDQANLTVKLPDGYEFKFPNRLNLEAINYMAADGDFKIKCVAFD
UniProt P35222: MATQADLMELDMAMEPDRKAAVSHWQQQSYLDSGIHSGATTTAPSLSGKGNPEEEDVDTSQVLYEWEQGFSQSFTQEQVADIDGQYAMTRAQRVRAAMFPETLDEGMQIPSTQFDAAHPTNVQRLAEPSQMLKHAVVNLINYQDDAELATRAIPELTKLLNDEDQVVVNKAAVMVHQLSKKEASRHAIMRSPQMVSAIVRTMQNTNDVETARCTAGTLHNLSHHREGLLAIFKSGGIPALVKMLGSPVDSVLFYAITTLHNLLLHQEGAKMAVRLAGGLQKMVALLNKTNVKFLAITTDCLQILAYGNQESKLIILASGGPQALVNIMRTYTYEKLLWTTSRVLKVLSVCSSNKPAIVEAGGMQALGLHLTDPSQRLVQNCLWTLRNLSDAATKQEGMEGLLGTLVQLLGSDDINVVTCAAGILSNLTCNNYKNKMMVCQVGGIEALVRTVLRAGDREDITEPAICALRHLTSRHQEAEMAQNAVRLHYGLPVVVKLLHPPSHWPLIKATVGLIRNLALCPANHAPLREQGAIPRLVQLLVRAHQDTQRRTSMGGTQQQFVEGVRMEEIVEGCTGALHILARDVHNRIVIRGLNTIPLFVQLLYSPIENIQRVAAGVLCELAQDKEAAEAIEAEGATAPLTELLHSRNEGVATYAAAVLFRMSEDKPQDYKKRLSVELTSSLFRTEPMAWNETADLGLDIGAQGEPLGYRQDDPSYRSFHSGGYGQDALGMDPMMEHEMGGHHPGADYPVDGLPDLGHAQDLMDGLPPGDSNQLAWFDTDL
UniProt Q9NR12: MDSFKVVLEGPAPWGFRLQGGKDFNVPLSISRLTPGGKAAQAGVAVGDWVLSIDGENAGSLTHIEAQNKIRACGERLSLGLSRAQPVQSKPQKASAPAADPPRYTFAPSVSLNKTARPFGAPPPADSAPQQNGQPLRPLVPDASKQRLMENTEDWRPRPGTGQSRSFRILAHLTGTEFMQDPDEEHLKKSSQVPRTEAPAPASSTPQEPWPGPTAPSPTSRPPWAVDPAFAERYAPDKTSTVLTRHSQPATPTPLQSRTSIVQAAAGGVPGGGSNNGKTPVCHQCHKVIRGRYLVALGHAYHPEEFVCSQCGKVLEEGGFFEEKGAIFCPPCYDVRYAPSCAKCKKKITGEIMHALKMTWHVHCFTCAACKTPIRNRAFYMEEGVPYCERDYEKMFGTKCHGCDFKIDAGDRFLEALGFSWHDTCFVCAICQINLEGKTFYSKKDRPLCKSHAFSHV

Legend:
[1] = biological target: FLAG-epitope-tagged full-length CUB domain-containing protein 1 (CDCP1) (UniProt Q9H5V8); assay: co-IP; sequential anti-FLAG (CDCP1), anti-Src immunoprecipitation from MDA-MB-468 cells transduced with adenoviruses encoding GFP, CDCP1 or PKCδ; unstimulated or stimulated with EGF or 100 μM sodium pervanadate for 20 minutes, with or without DDA RBF3; immunoblot
[2] = biological target: FLAG-epitope-tagged full-length CUB domain-containing protein 1 (CDCP1) (UniProt Q9H5V8); assay: co-IP; immunoprecipitation of FLAG-tagged CDCP1 forms from MDA-MB-468 cell extracts, immunoblot; cells also pretreated with DDA NSC624203 (20 μM, 24 h, and a range of concentrations), lapatinib (20 μM, 24 h), dasatinib (100 nM, 24 h) or EGF (10 ng/ml, 20 min)
[3] = biological target: CDCP1 (full length), transiently expressed in HEK 293 cells (UniProt Q9H5V8); assay: co-IP; HEK 293 cells transiently transfected; CDCP1 or ΔCDCP1-containing complexes isolated with anti-FLAG agarose, immunoblot
[4] = biological target: endogenous CDCP1 (human (endogenous in T47D)) (UniProt Q9H5V8); assay: co-IP; T47D cell extracts immunoprecipitated with a CDCP1 antibody, immunoblot
[5] = biological target: FLAG-epitope-tagged full-length CUB domain-containing protein 1 (CDCP1) (UniProt Q9H5V8); assay: co-IP; immunoprecipitation of FLAG-tagged CDCP1 forms from BT474 cell extracts, immunoblot
[6] = biological target: FLAG-epitope-tagged full-length CUB domain-containing protein 1 (CDCP1) (UniProt Q9H5V8); assay: co-IP; sequential immunoprecipitation of CDCP1, then Src, from MDA-MB-468 cells, immunoblot; with or without 20 μM DDA NSC624203 for 24 hours
[7] = biological target: FLAG-epitope-tagged full-length CUB domain-containing protein 1 (CDCP1) (UniProt Q9H5V8); assay: co-IP; anti-FLAG agarose from MDA-MB-231 cells transduced with adenoviral CDCP1 forms, immunoblot; also with PAI-1 coexpression, 20 μM GM6001, 100 nM dasatinib or 100 μM sodium pervanadate

Myc-tagged mouse PKCδ (printed as PKC™), adenovirally expressed (from UniProt P28867 1-674) (enzyme)
binding [1]: binds

PKCδ (from UniProt Q05655 1-676) (enzyme)
binding [2]: binds

Galectin 1, endogenous (from UniProt P09382 1-135)
binding [3]: binds

β-catenin, endogenous (from UniProt P35222 1-781)
binding [4]: binds

epidermal growth factor receptor (EGFR), endogenous (from UniProt P00533 25-1210)
binding [5]: binds weakly
binding [2]: binds
binding [6]: binds

Enigma/PDLIM7 in MDA-MB-231 cells (from UniProt Q9NR12 1-457)
binding [7]: binds
